Data: PubChem BioAssay AID330 (DTP/NCI, 2004)
The list is a part of this screen's results and no random one: it gathers tests that were run many times, whatever their T/C, doses with no T/C, and many T/C values between a quarter and a half above the control. Further doses and runs are listed elsewhere. T/C is the treated group as % of the vehicle group. Some doses have a count of surviving animals in place of a T/C: the source holds a T/C of zero for them, seemingly a mark for toxic or unscored doses. Some survivor counts are full or nearly so, which does not show that the dose was tolerated: the source hardly ever lists a survival T/C far under the control, and the zero likely stands for such cases as well. Survivors were counted at the toxicity check, usually on the fifth day, unless a day is given; later deaths do not show. Schedules are NCI's codes, read here as Q, the interval in days (D) or hours (H), X, the number of doses. Some entries were tested several times; the values are given in rising order. For survival time, this PubChem deposit counts one and a half times the control or more as active, and values a quarter to a half above the control carry no call in these data; other NCI protocols may use other cut-offs. Counts like (3×) say how often a value occurs here. Some T/C values carry the count of animals alive at the toxicity check (mostly the fifth day); without a count, all were alive then.

Test system: P388 leukemia ip, CD2F1 mice, survival T/C
Assay: NCI In Vivo Anticancer Drug Screen. Data for tumor model P388 Leukemia (intraperitoneal) in CD2F1 (CDF1) mice
Conditions: T/C endpoint: median survival time, higher T/C = longer survival
[1] = dose: 200.0 mg/kg/injection, schedule: Q01DX005 (ip), vehicle: Klucel (hydroxypropylcellulose) (HPC)
[2] = dose: 60.0 mg/kg/injection, schedule: Q01DX005 (ip), vehicle: saline with Tween-80
[3] = dose: 120.0 mg/kg/injection, schedule: Q01DX005 (ip), vehicle: saline with Tween-80
[4] = dose: 240.0 mg/kg/injection, schedule: Q01DX005 (ip), vehicle: saline with Tween-80
[5] = dose: 200.0 mg/kg/injection, schedule: Q01DX009 (ip), vehicle: saline with Tween-80
[6] = dose: 12.5 mg/kg/injection, schedule: Q01DX009 (ip), vehicle: water
[7] = dose: 25.0 mg/kg/injection, schedule: Q01DX009 (ip), vehicle: saline
[8] = dose: 25.0 mg/kg/injection, schedule: Q01DX009 (ip), vehicle: water
[9] = dose: 50.0 mg/kg/injection, schedule: Q01DX005 (ip), vehicle: saline
[10] = dose: 100.0 mg/kg/injection, schedule: Q01DX005 (ip), vehicle: saline
[11] = dose: 200.0 mg/kg/injection, schedule: Q01DX005 (ip), vehicle: saline
[12] = dose: 200.0 mg/kg/injection, schedule: Q01DX005 (ip), vehicle: saline with Tween-80

CN1C(=O)C(=CN(C)c2ccccc2)C(=O)N(C)C1=O
survivor count (dose: 200.0 mg/kg/injection, schedule: Q04DX003 (ip), vehicle: saline with Tween-80): 3 of 6
survivor count (dose: 400.0 mg/kg/injection, schedule: Q04DX003 (ip), vehicle: saline with Tween-80): 0 of 6

CC(C)(CNC(=O)C12CC3CC(CC(C3)C1)C2)NC(=O)C12CC3CC(CC(C3)C1)C2
survivor count (dose: 50.0 mg/kg/injection, schedule: Q01DX005 (ip), vehicle: Klucel (hydroxypropylcellulose) (HPC)): 5 of 5
survivor count [1]: 5 of 5

CNC(=O)OCC1=CC(=O)C(OC)=C(OC)C1=O
survivor count [2]: 2 of 6
survivor count [3]: 0 of 6
survivor count [4]: 0 of 6

Cc1csc(NC(=O)Nc2ccc(F)cc2[N+](=O)[O-])n1
survivor count [5]: 4 of 6

O=NNc1ccccn1
T/C (dose: 1.56 mg/kg/injection, schedule: Q01DX009 (ip), vehicle: saline): 96, 103 (2×), 104 (2×), 105 (2×), 108 (2×), 109 (2×), 111 (3×), 115, 120, 125 % of control
T/C (dose: 1.56 mg/kg/injection, schedule: Q01DX009 (ip), vehicle: water): 100 (2×), 101, 103, 104, 105, 106, 107, 108 (5×), 109, 110 (2×), 111 (2×), 112, 113 (3×), 114 (2×), 115 (2×), 116, 117 (2×), 118 (2×), 119, 120, 123, 124, 131 % of control
T/C (dose: 3.12 mg/kg/injection, schedule: Q01DX005 (ip), vehicle: water): 118, 124, 137, 138 % of control
T/C (dose: 3.12 mg/kg/injection, schedule: Q01DX009 (ip), vehicle: saline): 99, 102, 103, 105, 106, 108, 117 (2×), 118, 119, 122, 124, 125, 127, 128, 136 % of control [5 of 6 alive]
T/C (dose: 3.12 mg/kg/injection, schedule: Q01DX009 (ip), vehicle: water): 124, 127, 128, 129 (2×), 130, 133, 135, 141, 150 % of control
T/C (dose: 3.13 mg/kg/injection, schedule: Q01DX009 (ip), vehicle: saline): 126 [5 of 6 alive] and 131 % of control
T/C (dose: 3.13 mg/kg/injection, schedule: Q01DX009 (ip), vehicle: water): 106, 108, 109, 110, 114, 115, 116, 118, 120, 123 (3×), 124 (4×), 126, 127, 130 (2×), 131 (2×), 132 (3×), 133 (2×), 142 % of control
T/C (dose: 6.0 mg/kg/injection, schedule: Q01DX009 (ip), vehicle: water): 131 % of control
T/C (dose: 6.25 mg/kg/injection, schedule: Q01DX005 (ip), vehicle: water): 118, 130, 137, 143 % of control
T/C (dose: 6.25 mg/kg/injection, schedule: Q01DX009 (ip), vehicle: saline + alcohol): 137 % of control
T/C (dose: 6.25 mg/kg/injection, schedule: Q01DX009 (ip), vehicle: saline): 103, 106, 109, 112 (2×), 118, 120, 122 (2×), 125, 127, 130 (3×), 135 (2×), 136, 152, 164 % of control
T/C (dose: 6.25 mg/kg/injection, schedule: Q01DX009 (ip), vehicle: water): 108, 117, 122, 124, 127 [5 of 6 alive], 128 (2×), 131, 133 (2×), 134, 136 (2×), 137, 138 (2×), 139, 140 (2×), 141 (5×), 143, 144 (2×), 145 (2×), 147 (2×), 148, 149, 150 (3×), 162, 171 % of control
T/C (dose: 12.5 mg/kg/injection, schedule: Q01DX005 (ip), vehicle: water): 133 [5 of 6 alive], 153, 155, 174 % of control
T/C (dose: 12.5 mg/kg/injection, schedule: Q01DX009 (ip), vehicle: saline + alcohol): 137 % of control
T/C (dose: 12.5 mg/kg/injection, schedule: Q01DX009 (ip), vehicle: saline): 100, 102, 114, 119, 122, 126 (3×), 131, 137, 140, 146, 146 [5 of 6 alive], 147 (2×), 149, 150, 151, 152 % of control
T/C [6]: 100, 108, 130, 137 (2×), 139, 140, 141 (2×), 142, 146, 147 (2×), 148, 149, 151, 152 (2×), 153, 153 [5 of 6 alive], 156 (2×), 158 (2×), 160, 161, 162, 163 (2×), 166, 168, 169, 171, 172, 174, 175 % of control
survivor count [6]: 6 of 6
survivor count (dose: 25.0 mg/kg/injection, schedule: Q01DX005 (ip), vehicle: water): 6 of 6
T/C [7]: 86, 113, 116, 128, 134, 140, 147, 153, 155, 159, 161, 172, 174, 181, 187, 190 % of control
survivor count [7]: 3 of 6 and 6 of 6
T/C [8]: 87, 89, 93, 95, 96 (2×), 99 (2×), 100, 101 [5 of 6 alive], 102, 103, 105, 106, 107, 109, 127, 141, 150, 155, 167 % of control
survivor count [8]: 4 of 6 and 6 of 6
survivor count (dose: 50.0 mg/kg/injection, schedule: Q01DX005 (ip), vehicle: water): 3 of 6

CN(C)c1ccc(N)c(N)c1
survivor count [9]: 2 of 5
survivor count [10]: 0 of 5
survivor count [11]: 0 of 5
survivor count (dose: 200.0 mg/kg/injection, schedule: Q01DX009 (ip), vehicle: saline): 0 of 6
survivor count (dose: 400.0 mg/kg/injection, schedule: Q01DX009 (ip), vehicle: saline): 0 of 6
survivor count (dose: 600.0 mg/kg/injection, schedule: Q01DX009 (ip), vehicle: saline): 0 of 6

O=NNc1ncc(Cl)cc1Cl
T/C [8]: 128 % of control
T/C (dose: 50.0 mg/kg/injection, schedule: Q01DX009 (ip), vehicle: water): 145 % of control

C/C(O)=C(/N=Nc1ccccc1)C(=O)O
survivor count [4]: 1 of 6

CN1C(=O)C(=Cc2ccc(O)cc2)C(=O)N(C)C1=O
T/C [5]: 126 % of control (2×)

O=NNc1ccncc1
T/C (dose: 25.0 mg/kg/injection, schedule: Q01DX005 (ip), vehicle: saline): 129 % of control
survivor count [9]: 2 of 6 and 2 of 5
survivor count [10]: 0 of 5
survivor count [11]: 0 of 5

O=C1CN(c2ccccc2)C(=O)CN1/N=C/c1ccc[nH]1
survivor count (dose: 50.0 mg/kg/injection, schedule: Q01DX005 (ip), vehicle: saline with Tween-80): 6 of 6
survivor count (dose: 100.0 mg/kg/injection, schedule: Q01DX005 (ip), vehicle: saline with Tween-80): 6 of 6
survivor count [12]: 6 of 6

CON1C(=O)C(c2cccs2)=C2SCC=C21
survivor count [4]: 0 of 6

CCn1c2ccccc2c2cc(NC(=O)N(CCCl)N=O)ccc21
T/C (dose: 25.0 mg/kg/injection, schedule: Q01DX009 (ip), vehicle: saline with Tween-80): 133 and 146 % of control
T/C (dose: 50.0 mg/kg/injection, schedule: Q01DX009 (ip), vehicle: saline with Tween-80): 134 and 147 % of control

COc1ccc(Cc2cc(N=O)c(OC)cc2O)cc1
survivor count [12]: 5 of 6

CCOc1ccc2nc3cc(I)ccc3c(N)c2c1
survivor count [2]: 5 of 6
survivor count [3]: 0 of 6
survivor count [4]: 0 of 6

CN1CC(O)C2=CC(=O)C(=O)C(I)=C21 (stereo unspecified)
survivor count (dose: 100.0 mg/kg/injection, schedule: Q01DX005 (ip), vehicle: Klucel (hydroxypropylcellulose) (HPC)): 3 of 6
survivor count (dose: 120.0 mg/kg/injection, schedule: Q01DX005 (ip), vehicle: saline + Tween-80 + alcohol): 6 of 6
survivor count [1]: 2 of 6
survivor count (dose: 400.0 mg/kg/injection, schedule: Q01DX005 (ip), vehicle: Klucel (hydroxypropylcellulose) (HPC)): 0 of 6

O=C1C=CC(=Nc2ccc(N(CCCl)CCCl)cc2)C=C1
T/C (dose: 200.0 mg/kg/injection, schedule: Q01DX009 (ip), vehicle: Klucel (hydroxypropylcellulose) (HPC)): 133 % of control

CSc1ncc(/C(C)=N\N=C(N)N)c(C)n1
T/C (dose: 60.0 mg/kg/injection, schedule: Q01DX005 (ip), vehicle: Klucel (hydroxypropylcellulose) (HPC)): 136 % of control
T/C (dose: 120.0 mg/kg/injection, schedule: Q01DX005 (ip), vehicle: Klucel (hydroxypropylcellulose) (HPC)): 128 % of control
survivor count (dose: 120.0 mg/kg/injection, schedule: Q01DX005 (ip), vehicle: saline): 0 of 6
survivor count (dose: 240.0 mg/kg/injection, schedule: Q01DX005 (ip), vehicle: Klucel (hydroxypropylcellulose) (HPC)): 0 of 6

CC(=O)/C(=C\c1cccs1)C(=O)CCN(C)C
T/C (dose: 240.0 mg/kg/injection, schedule: Q01DX005 (ip), vehicle: saline): 129 % of control
survivor count (dose: 480.0 mg/kg/injection, schedule: Q01DX005 (ip), vehicle: saline): 2 of 6
